IC50 data for one compound are collected here from patent publication US7888341B2, “Combination of glivec (STI571) with a cyclin-dependent kinase inhibitor, especially flavopiridol, in the treatment of cancer” (The United States of America as represented by the …, priority 2002, dated 2011).

The subject of assay [1] is K562R cells. The assay can be described thus: cells. Particulars: Homo sapiens, K-562R.
The subject of assay [2] is parental K562S cells. The assay can be described thus: cells. Particulars: Homo sapiens.

SMILES strings stand for the structures. Counter-ions that a name gives are not always drawn.

In the case of `Cc1ccc(NC(=O)c2ccc(CN3CCN(C)CC3)cc2)cc1Nc1nccc(-c2cccnc2)n1` [SALT I, 4-[(4-methyl-1-piperazin-1-ylmethyl)-N-[4-methyl-3-[[4-(3-pyridinyl)-2-pyrimidinyl]amino]phenyl]benzamide methanesulfonate], the IC50 – broadly, the concentration at which inhibition is half-maximal – in assay [1] is approximately 3000 nM; in assay [2], 400 nM.
